No constants are given. Whether binding was seen depends on the method and setting. In cells and extracts the contact can be indirect. These calls come from enrichment with a bait or labelling near it, and not all partners need be listed. A no says only that the protein was not detected with the bait.
How the values were obtained:
Test in all cases: affinity purification with mass spectrometry; 100 ug His10-SUMO2/3 WT, IKR or QFI on Ni-NTA beads, incubated with whole-cell HeLa lysate 2 h at 4°C in 50 mM tris pH 7.5, 150 mM NaCl, 0.5% NP-40, 50 mM imidazole; eluted with 8 M urea; LC-MS/MS, label-free quantification against uncoated beads (t test, FDR 0.05), n = 4; only the target purified
[1] = molecular target: His10-SUMO2 IKR (I33A-K34A-R35A) (human (from the printed UniProt accession)) (UniProt P55854)
[2] = molecular target: His10-SUMO2 QFI (Q30A-F31A-I33A) (human (from the printed UniProt accession)) (UniProt P55854)
[3] = molecular target: His10-SUMO3 IKR (I34A-K35A-R36A) (human (from the printed UniProt accession)) (UniProt P61956)
[4] = molecular target: His10-SUMO3 QFI (Q31A-F32A-I34A) (human (from the printed UniProt accession)) (UniProt P61956)

Measured: binding

B1: ERCC1 (protein, UniProt P07992 1-297)
chain: MDPGKDKEGVPQPSGPPARKKFVIPLDEDEVPPGVAKPLFRSTQSLPTVDTSAQAAPQTYAEYAISQPLEGAGATCPTGSEPLAGETPNQALKPGAKSNSIIVSPRQRGNPVLKFVRNVPWEFGDVIPDYVLGQSTCALFLSLRYHNLHPDYIHGRLQSLGKNFALRVLLVQVDVKDPQQALKELAKMCILADCTLILAWSPEEAGRYLETYKAYEQKPADLLMEKLEQDFVSRVTECLTTVKSVNKTDSQTLLTTFGSLEQLIAASREDLALCPGLGPQKARRLFDVLHEPFLKVP
no binding: all assays above

From PMC12077520
